Measured values as given in patent US20050064533A1.
These are yes or no findings as the source states them, for the method shown. Binding seen in cells or lysates may run through a third protein. Some binding calls cover weakened binding; strength is not graded here.

Sequences of proteins named here, by UniProt entry; tags and fusion partners are left off. A change or cut given only in a name is not applied to a line headed by its entry. A line that says so, or that is headed by a name, gives the form on record, which may keep a tag or linker. Residues count along the entry.
C-terminal 100 amino acids of mouse HIF-2a (775-874), wild type, with N-terminal thioredoxin/6-histidine tag (P97481, residues 775-874): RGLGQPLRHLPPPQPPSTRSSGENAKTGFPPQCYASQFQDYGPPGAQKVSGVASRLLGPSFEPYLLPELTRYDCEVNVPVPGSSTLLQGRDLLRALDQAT
C-terminal 100 amino acids of mouse HIF-2a (775-874), mutant N851A, with N-terminal thioredoxin/6-histidine tag (P97481, form named): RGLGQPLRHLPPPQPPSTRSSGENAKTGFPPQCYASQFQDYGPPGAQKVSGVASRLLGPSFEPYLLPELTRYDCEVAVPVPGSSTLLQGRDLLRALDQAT
UniProt Q9NWT6: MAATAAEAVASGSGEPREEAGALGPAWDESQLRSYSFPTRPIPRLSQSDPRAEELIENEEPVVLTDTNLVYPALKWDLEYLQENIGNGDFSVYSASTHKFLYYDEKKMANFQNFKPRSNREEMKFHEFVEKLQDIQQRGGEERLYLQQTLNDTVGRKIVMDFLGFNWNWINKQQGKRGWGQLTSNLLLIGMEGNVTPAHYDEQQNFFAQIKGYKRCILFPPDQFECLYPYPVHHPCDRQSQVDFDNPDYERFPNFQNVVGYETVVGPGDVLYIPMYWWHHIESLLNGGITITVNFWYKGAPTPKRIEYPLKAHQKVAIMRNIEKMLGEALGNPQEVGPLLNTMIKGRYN

Key:
[1] = target: C-terminal 100 amino acids of mouse HIF-2a (775-874), wild type, with N-terminal thioredoxin/6-histidine tag (mouse) (UniProt P97481); assay: pulldown
[2] = target: C-terminal 100 amino acids of mouse HIF-2a (775-874), wild type, with N-terminal thioredoxin/6-histidine tag (mouse) (UniProt P97481); assay: pulldown of 35S-labelled CAD on amylose resin with MBP-HNH, autoradiography
[3] = target: C-terminal 100 amino acids of mouse HIF-2a (775-874), mutant N851A, with N-terminal thioredoxin/6-histidine tag (mouse) (UniProt P97481); assay: pulldown of 35S-labelled CAD N851A on amylose resin with MBP-HNH, autoradiography
[4] = target: C-terminal 100 amino acids of mouse HIF-2a (775-874), wild type, with N-terminal thioredoxin/6-histidine tag (mouse) (UniProt P97481); assay: pulldown (FIG. 8)

Measured: binding

MBP (maltose binding protein) fused to wild type HIF Asparagine Hydroxylase (HNH) (from UniProt Q9NWT6 1-349) (enzyme)
binds: all assays above
